In US20090054325A1:

Assays:
[1] = biological target: Lingo-1 (Homo sapiens (Human)); test: co-immunoprecipitation
p75NTR = test: co-immunoprecipitation

B1: full length wild-type human NgR protein (receptor)
chain: CPGACVCYNEPKVTTSCPQQGLQAVPVGIPAASQRIFLHGNRISHVPAASFRACRNLTILWLHSNVLARIDAAAFTGLALLEQLDLSDNAQLRSVDPATFHGLGRLHTLHLDRCGLQELGPGLFRGLAALQYLYLQDNALQALPDDTFRDLGNLTHLFLHGNRISSVPERAFRGLHSLDRLLLHQNRVAHVHPHAFRDLGRLMTLYLFANNLSALPTEALAPLRALQYLRLNDNPWVCDCRARPLWAWLQKFRGSSSEVPCSLPQRLAGRDLKRLAANDLQGCAVATGPYHPIWTGRATDEEPLGLPKCCQPDAADKASVLEPGRPASAGNALKGRVPPGDSPPGNGSGPRHINDSPFGTLPGSAEPPLTAVRPEGSEPPGFPTSGPRRRPGCSRKNRTRSHCRLGQAGSGGGGTGDSEGS
With B1 the binding [1] was “binds” and the binding (p75NTR) was “binds”.

B2: NgR-R377Q mutant protein (receptor)
chain: CPGACVCYNEPKVTTSCPQQGLQAVPVGIPAASQRIFLHGNRISHVPAASFRACRNLTILWLHSNVLARIDAAAFTGLALLEQLDLSDNAQLRSVDPATFHGLGRLHTLHLDRCGLQELGPGLFRGLAALQYLYLQDNALQALPDDTFRDLGNLTHLFLHGNRISSVPERAFRGLHSLDRLLLHQNRVAHVHPHAFRDLGRLMTLYLFANNLSALPTEALAPLRALQYLRLNDNPWVCDCRARPLWAWLQKFRGSSSEVPCSLPQRLAGRDLKRLAANDLQGCAVATGPYHPIWTGRATDEEPLGLPKCCQPDAADKASVLEPGRPASAGNALKGRVPPGDSPPGNGSGPQHINDSPFGTLPGSAEPPLTAVRPEGSEPPGFPTSGPRRRPGCSRKNRTRSHCRLGQAGSGGGGTGDSEGS
B2 was tested, and the binding [1] was “binds” and the binding (p75NTR) was “binds”.

B3: NgR-R377W mutant protein (receptor)
chain: CPGACVCYNEPKVTTSCPQQGLQAVPVGIPAASQRIFLHGNRISHVPAASFRACRNLTILWLHSNVLARIDAAAFTGLALLEQLDLSDNAQLRSVDPATFHGLGRLHTLHLDRCGLQELGPGLFRGLAALQYLYLQDNALQALPDDTFRDLGNLTHLFLHGNRISSVPERAFRGLHSLDRLLLHQNRVAHVHPHAFRDLGRLMTLYLFANNLSALPTEALAPLRALQYLRLNDNPWVCDCRARPLWAWLQKFRGSSSEVPCSLPQRLAGRDLKRLAANDLQGCAVATGPYHPIWTGRATDEEPLGLPKCCQPDAADKASVLEPGRPASAGNALKGRVPPGDSPPGNGSGPWHINDSPFGTLPGSAEPPLTAVRPEGSEPPGFPTSGPRRRPGCSRKNRTRSHCRLGQAGSGGGGTGDSEGS
In the case of B3, the binding [1] is reported as “binds” and the binding (p75NTR) is reported as “binds”.

Results are given in words; binding and its absence hold for the method and conditions named. Binding seen in cells or lysates may run through a third protein. Binding can be weak; no strength is given.
